Measurements: US10759994B2, “Luminogenic transition metal-based pyridyl complex and its use” (City University of Hong Kong, priority 2016, dated 2020)
For at least one compound, name, drawing or mass did not settle the structure. Some entries share one result that the patent states for a list of compounds. Some ranges recur; such a range may be that of the whole group of compounds.

Legend:
[1] = Photophysical data (emission wavelength, lifetime, quantum yield); format: physicochemical
Procedure: Electronic absorption spectra were recorded on an Agilent 8453 diode array spectrophotometer. Steady-state emission spectra were recorded on a HORIBA JOBIN YVON Fluorolog TCSPC spectrofluorometer. Unless specified otherwise, all solutions for photophysical studies were degassed with no fewer than four successive freeze-pump-thaw cycles and stored in a 10-cm^3 round bottomed flask equipped with a side-arm 1-cm fluorescence cuvette and sealed from the atmosphere by a Rotaflo HP6/6 quick-release Teflon stopper. Luminescence quantum yields were measured by the optically dilute method (Demas, J. N. and Crosby, G. A., J. Phys. Chem. 1971, 75, 991) using an aerated aqueous solution of [Ru(bpy)3]Cl2 (ϕem=0.028, λex=455 nm) as the standard solution (Wallace, L. and Rillema, D. P., Inorg. Chem., 1993, 32, 3836). The concentrations of the standard and sample solutions were adjusted until the absorbance at 455 nm was 0.1. The emission lifetimes were measured on a HORIBA JOBIN YVON Fluorolog TCSPC spectrofluorometer in the Fast MCS lifetime mode with a NanoLED N-375 as the excitation source.
The very low emission quantum yield of complexes 1a-5b compared with other related iridium(III) and ruthenium(II) systems are expected to be due to quenching by the nitrone moiety.
In particular, the emission quantum yields of the iridium(III) complexes 1a, 2a and 3a (ϕem<0.021; Table 1) were much lower than those of common cyclometalated iridium(Ill) polypyridyl complexes (Li, S. P.-Y. et al., Chem. Eur. J. 2010, 16, 8329; Li, S. P.-Y. et al., Biomaterials 2013, 34, 7519; Lo, K. K.-W. et al., Chem. Commun. 2013, 49, 4271) which is expected to be a consequence of efficient quenching associated with isomerization of the C═N group.

[2] = SPANC reaction kinetics with BCN—OH by UV/Vis absorption spectroscopy; format: physicochemical
Procedure: The reactivity of the iridium(III) and ruthenium(II) pyridyl complexes toward a strained alkyne derivative BCN—OH in MeOH at 298 K was studied. The second-order rate constants (k2) of the strain-promoted alkyne-nitrone cycloaddition (SPANC) reaction of complexes 1a-5b are shown in Tables 3 and 4, respectively. The k2 values of the iridium(III) complexes 1a, 2a and 3a and the ruthenium(II) complexes 1b, 2b, 3b, 4b, and 5b were determined to be 0.116-0.238 and 0.078-3.06 M^−1 s^−1, respectively, which are about 1.95-76.5 times that of the free ligand bpy-nitrone-Me (k2=0.040 M^−1 s^−1). This is attributed to the electron-withdrawing effects of the positively-charged metal centers. […]
More specifically, the SPANC reaction kinetics of complexes 1a 5b was studied by UV/Ms absorption spectroscopy. For the ligand bpy-nitrone-Me and the iridium(III) complexes 1a-3a, the k2 values were measured under pseudo first order conditions with a 25- to 100-fold excess of BCN—OH in MeOH at 298 K. The reaction process was followed by monitoring the exponential decay of the absorbance at 306-342 nm upon addition of BCN—OH. […] For the ruthenium(II) complexes 1b-5b, the k2 values were determined under pseudo first order conditions with a 50- to 200-fold excess of BCN—OH in MeOH at 298 K. The reaction process was monitored by following the exponential decay of the absorbance at 329 nm. […]

Cc1ccnc(-c2cc(/C=[N+](/C)[O-])ccn2)c1.F[P-](F)(F)(F)(F)F.F[P-](F)(F)(F)(F)F.[Ru+2].c1ccc(-c2ccccn2)nc1.c1ccc(-c2ccccn2)nc1 [Complex 1b]
λem ([1]; CH2Cl2, 298 K): 601, 660 sh nm | λem ([1]; Glass EtOH/MeOH (4:1, v/v), 77 K): 582 (max), 628, 656 sh nm | emission quantum yields (ϕem) ([1]; upper bound over all media of Tables 1 and 2): < 0.036 | k2 relative to that of the free ligand bpy-nitrone-Me ([2]; BCN—OH in MeOH at 298 K): 1.95-76.5 times | Second-order rate constants (k2) ([2]; reaction with BCN—OH in MeOH at 298 K): 0.078 to 3.06 M⁻¹ s⁻¹
